The other results are listed elsewhere or left out.
Compound: CCn1c(C(=O)N(C2CC2)C2CC2)cc2c3c(ncn3C)c(Nc3cc(C)n(C)n3)nc21
Test: log2 fold change, soluble protein after heating vs DMSO (PISA); higher = thermal stabilisation; K562 cells, 10 uM, 30 min; active = over 0.2 and 3.5 SD of the protein, either way, in both replicates (recomputed)
How it was run: (§1)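 K562 cells at 2×10^6 cells/mL were treated with 10 μM compound for 30 min. Aliquots were heated for 3 min across 48°C-58°C, pooled, and extracted in PBS with 0.5% NP-40 at 4°C; soluble protein was the supernatant after 21,000xg for 90 min. Soluble protein was quantified by TMTpro 16plex LC-MS/MS with channel sums equalised, and reported as log2 fold change in thermal stability against DMSO controls, with values from duplicates.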

Protein sequences, listed by entry. Tags and fused reporters are not part of them. Lines headed by an entry give the natural chain unless they say otherwise; changes in a name come on top.
UniProt Q32P41: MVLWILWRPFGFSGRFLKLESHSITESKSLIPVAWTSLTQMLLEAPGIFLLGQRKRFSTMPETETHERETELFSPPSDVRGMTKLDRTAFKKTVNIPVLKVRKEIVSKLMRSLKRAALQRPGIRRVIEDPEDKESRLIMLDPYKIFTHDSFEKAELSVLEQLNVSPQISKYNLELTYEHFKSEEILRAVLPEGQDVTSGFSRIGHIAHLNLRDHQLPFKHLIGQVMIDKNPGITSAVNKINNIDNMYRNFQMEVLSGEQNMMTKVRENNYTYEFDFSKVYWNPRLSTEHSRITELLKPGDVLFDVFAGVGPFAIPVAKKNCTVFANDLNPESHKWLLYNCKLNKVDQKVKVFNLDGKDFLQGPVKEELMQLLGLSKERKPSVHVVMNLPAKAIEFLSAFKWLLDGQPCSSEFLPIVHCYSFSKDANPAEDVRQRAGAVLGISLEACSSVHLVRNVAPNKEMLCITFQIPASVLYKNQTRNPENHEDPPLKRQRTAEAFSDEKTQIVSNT
UniProt Q15035: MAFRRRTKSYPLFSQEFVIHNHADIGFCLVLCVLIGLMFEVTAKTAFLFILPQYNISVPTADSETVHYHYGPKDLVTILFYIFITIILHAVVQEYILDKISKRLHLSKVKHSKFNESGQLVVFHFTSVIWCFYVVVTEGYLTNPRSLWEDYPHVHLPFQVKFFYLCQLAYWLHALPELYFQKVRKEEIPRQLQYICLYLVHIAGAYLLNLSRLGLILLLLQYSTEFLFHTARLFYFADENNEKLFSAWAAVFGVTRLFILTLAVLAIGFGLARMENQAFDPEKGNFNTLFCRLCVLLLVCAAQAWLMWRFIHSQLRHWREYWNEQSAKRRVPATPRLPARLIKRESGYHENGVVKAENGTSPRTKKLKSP
UniProt Q96GJ1: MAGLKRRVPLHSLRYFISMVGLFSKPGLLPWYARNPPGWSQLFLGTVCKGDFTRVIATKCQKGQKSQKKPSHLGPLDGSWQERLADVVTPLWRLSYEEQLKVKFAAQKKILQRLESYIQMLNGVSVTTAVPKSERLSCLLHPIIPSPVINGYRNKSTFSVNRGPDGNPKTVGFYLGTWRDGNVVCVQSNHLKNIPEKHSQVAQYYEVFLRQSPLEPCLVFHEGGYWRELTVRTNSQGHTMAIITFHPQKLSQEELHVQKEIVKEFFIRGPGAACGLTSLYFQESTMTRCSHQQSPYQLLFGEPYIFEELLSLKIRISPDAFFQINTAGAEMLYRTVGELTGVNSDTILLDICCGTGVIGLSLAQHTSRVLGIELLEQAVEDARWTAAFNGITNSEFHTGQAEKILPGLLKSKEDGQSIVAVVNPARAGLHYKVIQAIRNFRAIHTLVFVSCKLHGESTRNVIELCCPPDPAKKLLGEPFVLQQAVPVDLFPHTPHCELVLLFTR
UniProt O75865, whole entry, looked up: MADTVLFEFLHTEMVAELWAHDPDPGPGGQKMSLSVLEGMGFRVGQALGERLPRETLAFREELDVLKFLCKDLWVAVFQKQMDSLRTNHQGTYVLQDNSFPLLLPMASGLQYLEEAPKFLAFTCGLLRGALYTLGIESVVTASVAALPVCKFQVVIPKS
UniProt Q9Y5R8, whole entry, looked up: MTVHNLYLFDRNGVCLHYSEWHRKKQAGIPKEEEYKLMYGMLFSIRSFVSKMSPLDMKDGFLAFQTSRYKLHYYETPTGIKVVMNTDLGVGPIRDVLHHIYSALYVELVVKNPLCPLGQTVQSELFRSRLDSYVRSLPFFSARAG
UniProt Q9UKE5: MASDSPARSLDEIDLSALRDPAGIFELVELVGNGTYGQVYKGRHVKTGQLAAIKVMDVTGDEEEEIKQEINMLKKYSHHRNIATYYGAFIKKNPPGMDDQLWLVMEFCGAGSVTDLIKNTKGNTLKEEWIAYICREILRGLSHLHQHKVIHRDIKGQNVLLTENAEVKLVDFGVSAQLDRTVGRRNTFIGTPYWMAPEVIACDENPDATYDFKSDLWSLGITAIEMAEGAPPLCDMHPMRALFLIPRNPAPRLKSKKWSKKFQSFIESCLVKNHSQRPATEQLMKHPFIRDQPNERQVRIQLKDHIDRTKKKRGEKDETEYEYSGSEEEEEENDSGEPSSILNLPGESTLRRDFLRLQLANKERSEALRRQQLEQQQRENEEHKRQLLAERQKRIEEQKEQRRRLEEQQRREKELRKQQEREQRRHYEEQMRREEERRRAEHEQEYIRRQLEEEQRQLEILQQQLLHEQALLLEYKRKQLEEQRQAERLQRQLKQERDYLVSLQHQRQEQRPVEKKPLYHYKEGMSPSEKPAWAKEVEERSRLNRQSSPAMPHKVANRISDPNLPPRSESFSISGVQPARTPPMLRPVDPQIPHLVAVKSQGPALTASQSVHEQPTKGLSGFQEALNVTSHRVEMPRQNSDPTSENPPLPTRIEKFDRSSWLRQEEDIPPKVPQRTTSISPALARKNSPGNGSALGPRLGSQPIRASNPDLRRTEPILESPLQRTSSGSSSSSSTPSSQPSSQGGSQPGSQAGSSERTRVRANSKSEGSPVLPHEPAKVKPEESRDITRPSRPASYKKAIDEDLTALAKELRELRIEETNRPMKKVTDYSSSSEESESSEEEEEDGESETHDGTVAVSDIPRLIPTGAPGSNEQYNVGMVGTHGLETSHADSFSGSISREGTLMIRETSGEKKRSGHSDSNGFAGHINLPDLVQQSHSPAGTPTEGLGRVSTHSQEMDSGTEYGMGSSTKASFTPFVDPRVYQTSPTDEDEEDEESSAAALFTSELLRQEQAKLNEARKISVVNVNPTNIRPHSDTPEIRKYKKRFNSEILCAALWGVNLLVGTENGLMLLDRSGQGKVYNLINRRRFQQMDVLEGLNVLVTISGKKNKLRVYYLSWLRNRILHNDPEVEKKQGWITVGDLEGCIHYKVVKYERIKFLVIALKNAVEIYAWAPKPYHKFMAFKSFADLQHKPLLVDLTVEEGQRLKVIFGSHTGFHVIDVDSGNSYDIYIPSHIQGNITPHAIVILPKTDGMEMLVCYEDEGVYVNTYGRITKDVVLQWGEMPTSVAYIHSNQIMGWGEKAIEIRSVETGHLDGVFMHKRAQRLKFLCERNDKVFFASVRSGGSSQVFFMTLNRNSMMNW
UniProt P07951, whole entry, looked up: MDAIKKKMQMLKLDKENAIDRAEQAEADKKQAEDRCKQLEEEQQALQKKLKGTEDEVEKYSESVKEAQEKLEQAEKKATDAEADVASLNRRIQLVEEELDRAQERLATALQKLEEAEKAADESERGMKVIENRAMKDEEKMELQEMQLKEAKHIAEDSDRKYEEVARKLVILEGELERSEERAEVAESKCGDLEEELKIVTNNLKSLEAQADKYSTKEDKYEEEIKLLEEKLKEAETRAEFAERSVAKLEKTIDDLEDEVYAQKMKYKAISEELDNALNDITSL
UniProt Q92973: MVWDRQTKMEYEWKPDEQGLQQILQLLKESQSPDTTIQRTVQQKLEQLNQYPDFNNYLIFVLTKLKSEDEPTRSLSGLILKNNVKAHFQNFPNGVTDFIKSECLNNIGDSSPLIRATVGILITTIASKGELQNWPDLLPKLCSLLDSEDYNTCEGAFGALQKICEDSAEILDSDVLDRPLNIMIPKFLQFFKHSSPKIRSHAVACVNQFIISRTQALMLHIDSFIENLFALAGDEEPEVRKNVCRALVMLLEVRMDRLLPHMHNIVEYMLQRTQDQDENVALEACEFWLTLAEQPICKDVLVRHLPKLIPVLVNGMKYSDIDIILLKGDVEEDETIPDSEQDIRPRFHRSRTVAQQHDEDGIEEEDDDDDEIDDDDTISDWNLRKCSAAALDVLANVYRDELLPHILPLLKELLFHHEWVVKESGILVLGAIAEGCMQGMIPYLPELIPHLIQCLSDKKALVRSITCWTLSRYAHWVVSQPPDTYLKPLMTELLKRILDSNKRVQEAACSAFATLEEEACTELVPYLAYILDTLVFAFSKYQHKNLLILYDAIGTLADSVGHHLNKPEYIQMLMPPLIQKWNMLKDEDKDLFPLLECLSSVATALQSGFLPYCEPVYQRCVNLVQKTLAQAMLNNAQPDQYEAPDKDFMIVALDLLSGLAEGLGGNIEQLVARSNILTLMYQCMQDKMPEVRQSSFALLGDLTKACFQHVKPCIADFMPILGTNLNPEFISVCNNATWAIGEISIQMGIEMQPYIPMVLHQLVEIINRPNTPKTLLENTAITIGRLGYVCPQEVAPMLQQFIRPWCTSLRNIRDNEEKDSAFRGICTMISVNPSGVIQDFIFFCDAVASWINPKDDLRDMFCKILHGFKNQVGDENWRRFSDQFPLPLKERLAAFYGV
UniProt Q14669: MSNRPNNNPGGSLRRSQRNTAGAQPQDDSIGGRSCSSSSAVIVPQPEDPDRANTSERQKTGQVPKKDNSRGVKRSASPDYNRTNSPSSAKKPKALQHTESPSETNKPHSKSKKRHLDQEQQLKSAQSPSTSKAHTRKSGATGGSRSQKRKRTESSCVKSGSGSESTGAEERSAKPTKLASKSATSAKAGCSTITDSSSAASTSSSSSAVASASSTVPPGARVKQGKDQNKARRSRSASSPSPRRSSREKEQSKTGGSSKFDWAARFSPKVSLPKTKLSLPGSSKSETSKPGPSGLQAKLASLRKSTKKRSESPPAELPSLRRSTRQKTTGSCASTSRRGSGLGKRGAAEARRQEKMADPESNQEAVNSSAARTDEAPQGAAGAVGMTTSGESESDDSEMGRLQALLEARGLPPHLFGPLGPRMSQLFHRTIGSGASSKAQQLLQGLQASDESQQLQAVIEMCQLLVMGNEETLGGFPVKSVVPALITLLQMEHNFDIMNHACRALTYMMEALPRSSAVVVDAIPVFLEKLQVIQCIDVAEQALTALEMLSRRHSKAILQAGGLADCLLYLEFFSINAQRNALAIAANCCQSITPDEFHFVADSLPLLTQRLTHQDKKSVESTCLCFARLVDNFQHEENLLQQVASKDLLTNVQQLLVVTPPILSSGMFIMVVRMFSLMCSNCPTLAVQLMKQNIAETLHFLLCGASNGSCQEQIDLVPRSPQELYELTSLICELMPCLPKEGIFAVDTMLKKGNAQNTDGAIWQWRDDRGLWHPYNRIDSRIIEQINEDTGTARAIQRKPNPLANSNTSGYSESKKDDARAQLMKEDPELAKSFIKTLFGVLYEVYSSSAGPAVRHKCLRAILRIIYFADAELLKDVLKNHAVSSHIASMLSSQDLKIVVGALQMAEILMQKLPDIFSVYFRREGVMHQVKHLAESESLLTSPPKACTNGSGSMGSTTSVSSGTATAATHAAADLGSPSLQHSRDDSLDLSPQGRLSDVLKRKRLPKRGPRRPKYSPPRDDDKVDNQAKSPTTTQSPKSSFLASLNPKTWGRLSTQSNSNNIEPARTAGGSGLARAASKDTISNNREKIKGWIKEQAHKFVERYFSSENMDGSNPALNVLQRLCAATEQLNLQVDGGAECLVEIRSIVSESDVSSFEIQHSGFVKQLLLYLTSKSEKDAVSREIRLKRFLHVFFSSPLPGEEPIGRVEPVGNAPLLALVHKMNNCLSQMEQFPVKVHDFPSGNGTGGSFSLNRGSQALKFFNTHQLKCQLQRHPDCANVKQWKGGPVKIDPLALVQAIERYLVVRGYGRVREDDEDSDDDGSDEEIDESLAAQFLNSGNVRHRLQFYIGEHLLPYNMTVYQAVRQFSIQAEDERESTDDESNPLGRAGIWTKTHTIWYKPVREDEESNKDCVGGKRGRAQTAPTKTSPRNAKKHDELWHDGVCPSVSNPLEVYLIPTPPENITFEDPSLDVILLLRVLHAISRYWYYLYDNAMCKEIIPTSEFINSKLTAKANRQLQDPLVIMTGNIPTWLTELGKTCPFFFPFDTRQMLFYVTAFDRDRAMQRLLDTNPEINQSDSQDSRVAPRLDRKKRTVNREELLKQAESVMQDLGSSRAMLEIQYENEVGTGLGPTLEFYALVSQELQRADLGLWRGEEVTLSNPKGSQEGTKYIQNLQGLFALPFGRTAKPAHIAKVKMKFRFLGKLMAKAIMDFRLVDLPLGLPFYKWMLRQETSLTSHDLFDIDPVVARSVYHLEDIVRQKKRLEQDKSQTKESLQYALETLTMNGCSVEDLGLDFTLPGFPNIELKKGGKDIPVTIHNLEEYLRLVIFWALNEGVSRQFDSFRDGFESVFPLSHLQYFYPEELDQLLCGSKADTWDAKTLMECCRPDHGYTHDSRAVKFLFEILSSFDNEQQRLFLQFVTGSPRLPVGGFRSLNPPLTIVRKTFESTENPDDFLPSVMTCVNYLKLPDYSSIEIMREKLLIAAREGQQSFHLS
UniProt Q9H4I3: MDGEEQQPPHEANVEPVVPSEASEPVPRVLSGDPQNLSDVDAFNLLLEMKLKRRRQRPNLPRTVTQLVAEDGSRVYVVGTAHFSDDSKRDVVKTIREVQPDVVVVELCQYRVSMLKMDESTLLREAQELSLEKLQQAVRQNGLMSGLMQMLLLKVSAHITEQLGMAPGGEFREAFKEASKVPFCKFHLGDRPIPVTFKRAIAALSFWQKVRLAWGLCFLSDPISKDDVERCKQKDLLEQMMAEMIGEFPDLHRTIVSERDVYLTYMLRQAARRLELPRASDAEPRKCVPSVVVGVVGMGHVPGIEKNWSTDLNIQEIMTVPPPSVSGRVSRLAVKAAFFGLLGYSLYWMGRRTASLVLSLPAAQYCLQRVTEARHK

log2 fold change, inactive:
TRIO (UniProt O75962) -0.068
TRMT5 (UniProt Q32P41) -0.019
TSC1 (UniProt Q92574) 0.026
TRAM2 (UniProt Q15035) -0.025
TRMT2B (UniProt Q96GJ1) -0.021
TNIP1 (UniProt Q15025) -0.104
TRAPPC6A isoform 2 (UniProt O75865) -0.04
TRAPPC1 (UniProt Q9Y5R8) -0.007
TNIK isoform 3 (UniProt Q9UKE5) -0.013
TRPM7 (UniProt Q96QT4) 0.002

Compound: CCn1cc(-c2ccnc3[nH]c(-c4cccc(CN(C)C)c4)cc23)c(-c2ccc(NC(=O)N(C)C)cc2)n1
Test: as above
How it was run: as §1

log2 fold change, inactive:
TRIM23 (UniProt P36406) -0.089
TRIM28 (UniProt Q13263) 0
TPM2 (UniProt P07951) -0.04
TNPO2 (UniProt O14787) -0.027
TRMT5 (UniProt Q32P41) 0.005
TOMM5 isoform 2 (UniProt Q8N4H5) 0.039
TRMT10A (UniProt Q8TBZ6) -0.037
TRAM1 (UniProt Q15629) 0.066
TSEN2 (UniProt Q8NCE0) -0.082
TOM1L1 (UniProt O75674) -0.004
TNPO1 (UniProt Q92973) -0.025
TRIP12 isoform 3 (UniProt Q14669) 0.064
TRIM44 (UniProt Q96DX7) 0.005
TOR1AIP1 (UniProt Q5JTV8) -0.029
TRABD (UniProt Q9H4I3) -0.108
TRMT2B (UniProt Q96GJ1) 0.051
TRIM4 (UniProt Q9C037) -0.069
TRIP10 (UniProt Q15642) -0.051
TRAPPC1 (UniProt Q9Y5R8) -0.162
TNIK isoform 3 (UniProt Q9UKE5) -0.046
TRMT10C (UniProt Q7L0Y3) -0.057
TP53BP1 isoform 2 (UniProt Q12888) 0
TOMM20 (UniProt Q15388) -0.017
TRAPPC3 (UniProt O43617) 0.04
TSC2 (UniProt P49815) 0.016
TNFRSF8 (UniProt P28908) -0.016
TRPM7 (UniProt Q96QT4) 0.048

Compound: CN(C)CC(=O)Nc1ccc2[nH]c(=O)c3ccccc3c2c1
Test: as above
How it was run: as §1

log2 fold change, inactive:
TRIM23 (UniProt P36406) 0.025
TRIM28 (UniProt Q13263) 0.047
TPM2 (UniProt P07951) -0.057
TNPO2 (UniProt O14787) 0.111
TRMT5 (UniProt Q32P41) 0.214
TOMM5 isoform 2 (UniProt Q8N4H5) -0.046
TRMT10A (UniProt Q8TBZ6) 0.047
TSC1 (UniProt Q92574) 0.168
TRAM1 (UniProt Q15629) 0.062
TSEN2 (UniProt Q8NCE0) 0.086
TOM1L1 (UniProt O75674) 0.043
TNPO1 (UniProt Q92973) 0.018
TRAM2 (UniProt Q15035) 0.181
TRIP12 isoform 3 (UniProt Q14669) -0.136
TRIM44 (UniProt Q96DX7) -0.004
TRABD (UniProt Q9H4I3) 0.029
TRMT2B (UniProt Q96GJ1) -0.091
TRIM4 (UniProt Q9C037) 0.03
TRIP10 (UniProt Q15642) 0.04
TRAPPC1 (UniProt Q9Y5R8) 0.056
TNIK isoform 3 (UniProt Q9UKE5) -0.018
TRMT10C (UniProt Q7L0Y3) 0.018
TP53BP1 isoform 2 (UniProt Q12888) 0.008
TOMM20 (UniProt Q15388) -0.005
TRAPPC3 (UniProt O43617) -0.016
TNFRSF8 (UniProt P28908) 0.009
TRPM7 (UniProt Q96QT4) 0.044

Compound: CN(CCOC1=CC=C(C=C1)C[C@H]2C(=O)NC(=O)S2)C3=CC=CC=N3 (racemic) [rosiglitazone]
Test: as above
How it was run: as §1

log2 fold change, inactive:
TRIO (UniProt O75962) 0.08
TOR1AIP2 (UniProt Q9H496) 0.057
TRMT5 (UniProt Q32P41) -0.174
TRAM2 (UniProt Q15035) 0.16
TRIP12 isoform 3 (UniProt Q14669) 0.096
TOR1AIP1 (UniProt Q5JTV8) -0.01
TRMT2B (UniProt Q96GJ1) -0.168
TNIP1 (UniProt Q15025) 0.006
TRAPPC6A isoform 2 (UniProt O75865) -0.434
TRAPPC1 (UniProt Q9Y5R8) -0.061
TNIK isoform 3 (UniProt Q9UKE5) -0.03
TRPM7 (UniProt Q96QT4) 0.071

From the supplement of paper PMC10849652
